# Results published in the supplement of paper PMC9015667.
# Where a name gives a salt, the structure may show the parent alone. The list shows a part of the results. Many values rest on one well or one pass, so single values are uncertain.
# Columns and labels:
# Assay in all cases: reduction in cell viability relative to untreated/vehicle; higher = more growth inhibition
# Settings in all cases: 200 nM; 72 h
# M229P = tested on: M229P (parental melanoma line)
# M229R = tested on: M229R (matched melanoma line resistant to BRAF inhibitors)
# M238P = tested on: M238P (parental melanoma line)
# M238R = tested on: M238R (matched melanoma line resistant to BRAF inhibitors)
# M249P = tested on: M249P (parental melanoma line)
# M249R = tested on: M249R (matched melanoma line resistant to BRAF inhibitors)
# UACC62P = tested on: UACC62P (parental melanoma line)
# UACC62R = tested on: UACC62R (matched melanoma line resistant to BRAF inhibitors)
SMILES,reduction in cell viability (M229P),reduction in cell viability (M229R),reduction in cell viability (M238P),reduction in cell viability (M238R),reduction in cell viability (M249P),reduction in cell viability (M249R),reduction in cell viability (UACC62P),reduction in cell viability (UACC62R)
O=C(c1ccc(Nc2nccc(-c3cc4ccccc4s3)n2)cc1)N1CCC(N2CCCC2)CC1,8.85%,4.47%,< 0%,< 0%,< 0%,< 0%,< 0%,< 0%
COc1cc(NC(=O)c2ccc(-c3ccc(Cl)cc3)o2)cc(OC)c1,< 0%,< 0%,< 0%,< 0%,< 0%,< 0%,< 0%,< 0%
CC(O)(C#Cc1ccc2c(c1)N(c1nc(N)ncc1Cl)CC2)c1nccs1 (configuration not stated),< 0%,< 0%,< 0%,< 0%,< 0%,< 0%,< 0%,< 0%
CN1C(C(=O)Nc2ccccn2)=C(O)c2sccc2S1(=O)=O [Tenoxicam],< 0%,< 0%,< 0%,< 0%,< 0%,< 0%,< 0%,< 0%
Cc1ccc(S(=O)(=O)Nc2cc(Cl)ccc2C(=O)Nc2nc(-c3ccccc3)cs2)cc1,< 0%,< 0%,< 0%,< 0%,< 0%,< 0%,< 0%,< 0%
Cc1csc(NC(=O)CSc2nc3c(c(C(F)(F)F)c2C#N)CCC3)n1 [Irestatin 9389],< 0%,< 0%,< 0%,< 0%,< 0%,< 0%,1.87%,< 0%
COc1cc(N2CCC(N3CCN(C)CC3)CC2)ccc1Nc1ncnc(Nc2ccccc2S(=O)(=O)C(C)C)n1,< 0%,< 0%,< 0%,< 0%,< 0%,< 0%,< 0%,< 0%
CC(C(=O)O)c1cccc(C(=O)c2ccccc2)c1 (configuration not stated) [Ketoprofen],< 0%,< 0%,< 0%,< 0%,< 0%,< 0%,< 0%,< 0%
COCCCOc1cc(C[C@@H](C[C@H](N)[C@@H](O)C[C@H](C(=O)NCC(C)(C)C(N)=O)C(C)C)C(C)C)ccc1OC [Aliskiren hemifumarate],< 0%,< 0%,< 0%,< 0%,< 0%,< 0%,< 0%,< 0%
O=C(C1CC1)N1CC[C@@H](Cn2c(-c3ccc(-c4ccc5occc5c4)cc3)nc3cnccc32)C1,< 0%,< 0%,< 0%,< 0%,< 0%,< 0%,< 0%,< 0%
Cc1c(CN2CCN(C(=O)[C@H](C)O)CC2)sc2c(N3CCOCC3)nc(-c3cnc(N)nc3)nc12,18%,41.9%,51.1%,59.1%,36%,42.8%,40.7%,32.6%
Cc1cc(C(=O)NOCCO)c(Nc2ccc(I)cc2F)n(C)c1=O,34%,14.6%,39.6%,< 0%,79.2%,79.5%,63.5%,55.1%
CCN(CC)CCCCNc1nc2cc(Cl)c(Cl)cc2nc1-c1ccc(-c2cccs2)s1,< 0%,< 0%,< 0%,< 0%,< 0%,< 0%,< 0%,< 0%
COc1ccc(CC(=O)NC(/N=C(\NC#N)Nc2cccc3ncccc23)C(C)(C)C)cc1OC (configuration not stated),< 0%,< 0%,< 0%,< 0%,< 0%,< 0%,< 0%,< 0%
NS(=O)(=O)OC[C@@H]1C[C@@H](n2ccc3c(N[C@H]4CCc5ccccc54)ncnc32)C[C@@H]1O,29.7%,39.2%,76.8%,19.6%,44.3%,15.7%,35.1%,83.8%
CC1(C)[C@H](C(=O)O)N2C(=O)C[C@H]2S1(=O)=O [Sulbactam],< 0%,< 0%,< 0%,< 0%,< 0%,< 0%,< 0%,< 0%
CC(=O)O[C@@]12CO[C@@H]1C[C@H](O)[C@@]1(C)C(=O)[C@H](O)C3=C(C)[C@@H](OC(=O)[C@H](O)[C@@H](NC(=O)OC(C)(C)C)c4ccccc4)C[C@@](O)([C@@H](OC(=O)c4ccccc4)[C@H]21)C3(C)C [Docetaxel],18.4%,28.7%,55.3%,55.9%,35.4%,39.5%,21.3%,75.7%
Oc1ccc(/C=C/c2cc(O)cc(O)c2)cc1 [Resveratrol],< 0%,< 0%,< 0%,< 0%,< 0%,< 0%,< 0%,< 0%
O=C1[C@H](CC[C@H](O)c2ccc(F)cc2)[C@@H](c2ccc(O)cc2)N1c1ccc(F)cc1 [Ezetimibe],< 0%,0.18%,< 0%,< 0%,< 0%,< 0%,< 0%,< 0%
N#Cc1c(O)c2c(-c3ccc(-c4ccccc4O)cc3)csc2[nH]c1=O,< 0%,< 0%,< 0%,< 0%,< 0%,< 0%,< 0%,< 0%

# Single records, from the list above.
# COCCCOc1cc(C[C@@H](C[C@H](N)[C@@H](O)C[C@H](C(=O)NCC(C)(C)C(N)=O)C(C)C)C(C)C)ccc1OC [Aliskiren hemifumarate] in the list: reduction in cell viability (M229P): < 0%; reduction in cell viability (M229R): < 0%; reduction in cell viability (M238P): < 0%; reduction in cell viability (M238R): < 0%; reduction in cell viability (M249P): < 0%; reduction in cell viability (M249R): < 0%; reduction in cell viability (UACC62P): < 0%; reduction in cell viability (UACC62R): < 0%
# COc1cc(N2CCC(N3CCN(C)CC3)CC2)ccc1Nc1ncnc(Nc2ccccc2S(=O)(=O)C(C)C)n1 in the list: reduction in cell viability (M229P): < 0%; reduction in cell viability (M229R): < 0%; reduction in cell viability (M238P): < 0%; reduction in cell viability (M238R): < 0%; reduction in cell viability (M249P): < 0%; reduction in cell viability (M249R): < 0%; reduction in cell viability (UACC62P): < 0%; reduction in cell viability (UACC62R): < 0%

# Following part

SMILES,reduction in cell viability (M229P),reduction in cell viability (M229R),reduction in cell viability (M238P),reduction in cell viability (M238R),reduction in cell viability (M249P),reduction in cell viability (M249R),reduction in cell viability (UACC62P),reduction in cell viability (UACC62R)
O=c1[nH]c(=O)n([C@H]2C[C@H](O)[C@@H](CO)O2)cc1C(F)(F)F [Trifluridine],< 0%,< 0%,< 0%,< 0%,< 0%,< 0%,< 0%,< 0%
CC(=O)O[C@H]1C[C@@H]2CC[C@@H]3[C@H](CC[C@@]4(C)[C@H]3C[C@H]([N+]3(C)CCCCC3)[C@@H]4OC(C)=O)[C@@]2(C)C[C@@H]1N1CCCCC1 [Vecuronium bromide],< 0%,< 0%,< 0%,< 0%,< 0%,< 0%,< 0%,< 0%
CNC(=O)c1c(-c2ccc(F)cc2)oc2cc(N(CCO)S(C)(=O)=O)c(C3CC3)cc12 [Nesbuvir],< 0%,< 0%,< 0%,< 0%,< 0%,< 0%,< 0%,< 0%
N#C/C(=C(/O)c1ccc(Cl)cc1Cl)c1nc2cc(Cl)ccc2c(=O)[nH]1 [Cilliobrevin D],< 0%,< 0%,< 0%,< 0%,< 0%,< 0%,< 0%,< 0%
CC1(C)CC(=O)c2c(C(F)(F)F)nn(-c3ccc(C(N)=O)c(N[C@H]4CC[C@H](OC(=O)CN)CC4)c3)c2C1,63.8%,62.8%,49.6%,61.7%,36.4%,32.9%,72.4%,70.5%
COc1ccc(-c2coc3cc(O)ccc3c2=O)cc1 [Formononetin],< 0%,< 0%,< 0%,< 0%,< 0%,< 0%,2.82%,< 0%
CC(C)OC(=O)C1=CN(C(=O)c2ccc(F)c(F)c2)CC(C)(C)c2c1[nH]c1ccccc21 [Turofexorate isopropyl],< 0%,< 0%,< 0%,< 0%,< 0%,< 0%,< 0%,< 0%
C[C@]12C=CC(=O)C=C1CC[C@@H]1[C@@H]2C(=O)C[C@@]2(C)[C@H]1CC[C@]2(O)C(=O)CO [Prednisone???],< 0%,< 0%,< 0%,< 0%,< 0%,< 0%,< 0%,< 0%
N#CC(c1ccnc(OCc2ccc(CN3CCOCC3)cc2)n1)c1nc2ccccc2s1 (configuration not stated),< 0%,< 0%,< 0%,< 0%,< 0%,< 0%,< 0%,< 0%
O=C1c2cccc(O)c2C(=O)c2c(O)cc(CO)cc21 [Aloe-emodin],< 0%,2.45%,< 0%,< 0%,< 0%,< 0%,2.32%,< 0%
CNNCc1ccc(C(=O)NC(C)C)cc1 [Procarbazine hydrochloride],< 0%,< 0%,< 0%,< 0%,< 0%,< 0%,< 0%,4.73%
COC1CCC(N(C(=O)C2CCC(C)CC2)c2cc(C3=CCCCC3)sc2C(=O)O)CC1 (configuration not stated),< 0%,< 0%,< 0%,< 0%,< 0%,< 0%,< 0%,< 0%
NC[C@H]1CC[C@H](C(=O)O)CC1 [Tranexamic acid],< 0%,< 0%,< 0%,< 0%,< 0%,< 0%,< 0%,< 0%
CC(C)[C@H]1CC[C@H](C(=O)N[C@H](Cc2ccccc2)C(=O)O)CC1 [Nateglinide],< 0%,< 0%,< 0%,< 0%,< 0%,< 0%,< 0%,< 0%
COc1cc(/C=C/C(=O)O)ccc1O [Fumalic acid],6.56%,< 0%,< 0%,< 0%,< 0%,5.66%,< 0%,< 0%
N#CC(=C(/N)Sc1ccccc1N)/C(C#N)=C(/N)Sc1ccccc1N,< 0%,< 0%,5.07%,< 0%,5.25%,0.76%,37.1%,< 0%
CN1CCN(c2ncc(-c3cc(Cl)cc(Cl)c3Cl)c(N)n2)CC1 [Sipatrigine],< 0%,< 0%,< 0%,< 0%,< 0%,< 0%,< 0%,< 0%
Clc1cccc(-n2nnnc2NCc2ccccc2Oc2ccccn2)c1Cl,< 0%,< 0%,< 0%,< 0%,< 0%,< 0%,3.72%,< 0%
CCN(CC)C(=S)SSC(=S)N(CC)CC [Disulfiram],73%,52.5%,89.6%,71.2%,70.9%,78.2%,81.3%,< 0%
